Measured values taken from patent US9822147B2, “Methods of treating ophthalmic diseases using NPR-B agonists” (priority 2009, dated 2017).
At least one peptide structure holds a part that was inferred or is arguable (an end, a ring closure or a residue). Numbered stars: 1 amine (or outer) side, 2 acyl side, 3 side chain; on linkers, the order of the positions; unused ones are H or OH. Square brackets hold non-standard residues; d marks the D form. Peptide text beside a SMILES is read from it. * marks the point of attachment. Phe(3,4-Cl2) = N[C@@H](Cc1ccc(Cl)c(Cl)c1)C(=O)O; X2 = O=C([C@H]1CCCN([*:1])C1)[*:2]; Hyp = O=C(O)[C@@H]1C[C@@H](O)CN1; NMeL = CN[C@@H](CC(C)C)C(=O)O; Octanoyl = CCCCCCCC(=O)*

Tested on: rabbit eyes
Assay: Efficacy in the rabbit: intraocular pressure (IOP) after a single topical ocular drop
Format: in vivo
Details: dose 300 ug topical ocular, single 30 μL drop, up to 4 hr post dose, 1% as suspension (+) or solution (++) per mark on label
Experimental: A single 30 μL drop of a test item formulation was administered to rabbit eyes (n=8 to 10).
Intraocular pressure (IOP) was assessed in each eye at 0 hr, just prior to dosing, and again hourly for up to 4 hr post dose. The efficacy of a given formulation was determined based on the difference between the pretreatment TOP readings at 0 hr and the post treatment readings. A maximum percent reduction in IOP greater than 15% was noted by the “+” symbol. A maximum IOP reduction of less than 15% was assigned the “−” symbol.

**Q.** Which “RIOP, maximum percent reduction in IOP” value does the source give for CCCCCCCC(=O)N1CCC[C@H](C(=O)N[C@@H](Cc2ccc(Cl)c(Cl)c2)C(=O)N[C@H](CC(C)C)C(=O)N[C@@H](CC(C)C)C(=O)N2C[C@H](O)C[C@H]2C(=O)N(C)[C@@H](CC(C)C)C(=O)N[C@@H](CC(=O)O)C(=O)N[C@@H](CCCNC(=N)N)C(=O)N[C@H](C(N)=O)[C@@H](C)CC)C1 [JAL-1496, Occ-Sni-Eaa-leu-Leu-Hyp-Nml-Asp-Arg-Ile-NH2] (Octanoyl-[X2][Phe(3,4-Cl2)][dL]L[Hyp][NMeL]DRI-NH2) here?
**A.** − (− IOP reduction <15%)
